Experiment: Plasma HN level according to coronary endothelial function
Parameters: species or system human
Conditions: endogenous level
Procedure: Plasma HN levels were measured in 20 patients with normal coronary endothelial function and 20 patients with coronary endothelial dysfunction. Age, sex, smoking diabetes mellitus, hypertension, body mass index, total cholesterol, LDL-cholesterol, HDL-cholesterol and TG level were not different between the two groups. […] FIG. 8.

humanin [HN]
plasma HN level (normal coronary endothelial function group): 2.20 ± 0.33 ng/mL
plasma HN level (patients with coronary endothelial dysfunction): 1.28 ± 0.25 ng/mL

— patent US20130123168A1, “HUMANIN AND HUMANIN-ANALOGUES FOR THE MANAGEMENT OF ATHEROSCLEROSIS” (The Regents of the University of California, priority 2011, published 2013)
